{"source": "PubChem BioAssay AID1347426", "about": "(Functional Genomics Laboratory (NCATS/FGL), 2020)", "note": "Among all 31,000 sequences or so, about 1,400 (4.5%) were called active.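 How the source made its calls: active means median seed-adjusted z-score above 1 or below -1; inactive means the rest.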 Some of the results follow.", "data": [{"assay": "Novel Modifiers of Survival Motor Neuron (SMN) Protein: Gene Identification via Genome-wide siRNA Screen;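 further: luminescence tracks full-length SMN protein made from the SMN2 reporter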", "conditions": "HEK293T SMN2-luciferase reporter, siRNA knockdown, 72 h; actives lie on both sides", "summary_of_the_method": "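Luciferase signal, proportional to full-length SMN made from an SMN2 cDNA reporter in stable HEK293T cells, was read 72 h after siRNA reverse transfection. Values were expressed as MAD scores after non-targeting-control normalization and log10 conversion; seed analysis flagged off-targets.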", "values": [{"sequence": "CAAUCUAUUAAGAAAUGUUTT against RPE", "median seed-adjusted z-score": "inactive: 0.616"}, {"sequence": "CUAUAGGAAUGUUGAAUAATT against WDR33", "median seed-adjusted z-score": "active: 3.27"}, {"sequence": "GACCUCACCUAGAAAUUGATT against TNF", "median seed-adjusted z-score": "inactive: -0.138"}, {"sequence": "CAACAACUGCUACCAAGAUTT against SLC6A4", "median seed-adjusted z-score": "active: 1.43"}, {"sequence": "CAGCAUUCUUUAUCUCGUATT against FZD3", "median seed-adjusted z-score": "inactive: -0.0208"}, {"sequence": "AGAUUGUCCUCAACUUCAATT against NRP2", "median seed-adjusted z-score": "inactive: 0.477"}, {"sequence": "GCGUAUCUUUGAUAGUGAATT against NARS", "median seed-adjusted z-score": "inactive: -0.361"}, {"sequence": "CUCUAACAGUGCUCGAUUATT against COL14A1", "median seed-adjusted z-score": "inactive: 0.19"}, {"sequence": "GGUUGUUAAUUAUGGAUCATT against SLC24A4", "median seed-adjusted z-score": "inactive: 0.0358"}, {"sequence": "GACUAUCUGCAUUCGGAUATT against SIM1", "median seed-adjusted z-score": "inactive: -0.0177"}, {"sequence": "CCGCAUAGCUCAUAGGAUATT against SMARCA2", "median seed-adjusted z-score": "inactive: -0.458"}, {"sequence": "CCCUCACCAAAUACCCUGATT against KCTD1", "median seed-adjusted z-score": "inactive: 0"}, {"sequence": "CCACUUCACAAGGCUAGAATT against PARP3", "median seed-adjusted z-score": "inactive: -0.0383"}, {"sequence": "GGUCUAUCUUCAGGGAUUATT against SAA4", "median seed-adjusted z-score": "inactive: 0.104"}, {"sequence": "GGACAUAAUGUAUUAUACUTT against DDHD1", "median seed-adjusted z-score": "inactive: 0"}, {"sequence": "CCAUUUAAAUACAUCGUGATT against DYNLT1", "median seed-adjusted z-score": "inactive: 0.764"}, {"sequence": "CAACGAGACCGGCUCCAUUTT against PAX1", "median seed-adjusted z-score": "inactive: -0.111"}, {"sequence": "GCAUCGGGCUACCACCAAATT against PI4K2A", "median seed-adjusted z-score": "inactive: -0.486"}, {"sequence": "CAGUGUUCAUGGUCCUCCATT against CIDEC", "median seed-adjusted z-score": "inactive: 0.189"}, {"sequence": "UCAUCUUCUUUGACCCAGATT against HNF4A", "median seed-adjusted z-score": "inactive: -0.0274"}, {"sequence": "CUACCACAAUCAUCGAAAATT against FABP3", "median seed-adjusted z-score": "inactive: -0.0786"}, {"sequence": "CCAUUUGAGAAACCUAAUATT against GCN5L2", "median seed-adjusted z-score": "inactive: 0.013"}, {"sequence": "GCAUGAUCAUUGGAGGUAUTT against BACE1", "median seed-adjusted z-score": "inactive: -0.537"}, {"sequence": "GAUUAACCAAGGUUGAGAATT against CNGA1", "median seed-adjusted z-score": "active: -1.08"}, {"sequence": "GCCCAGUACUUUGUCUACATT against CNTN2", "median seed-adjusted z-score": "inactive: 0"}, {"sequence": "CAACAACUCCAACCAGUUUTT against ITGB2", "median seed-adjusted z-score": "inactive: -0.765"}, {"sequence": "GCAAUUCCUCAGAUAUCAATT against PTPN12", "median seed-adjusted z-score": "inactive: -0.507"}, {"sequence": "UUCUCUCCCUAAUAAAAAUTT against AVPR2", "median seed-adjusted z-score": "inactive: -0.262"}, {"sequence": "CGAUCAGCAACCUUACAAATT against CLIP1", "median seed-adjusted z-score": "inactive: 0.853"}, {"sequence": "GAAAAUCUAUCAGAACAUUTT against RAB14", "median seed-adjusted z-score": "inactive: -0.0567"}, {"sequence": "CAUUGAAGAUUGGUACAAATT against ZNF564", "median seed-adjusted z-score": "inactive: 0.382"}, {"sequence": "GGGUUUAACUUUCAGAGAUTT against VN2R1P", "median seed-adjusted z-score": "inactive: -0.25"}, {"sequence": "GAAUUGAUCUGUACCAUGUTT against LALBA", "median seed-adjusted z-score": "inactive: -0.148"}, {"sequence": "CGCUCUAGCCUGACAUAUATT against ADAMTS3", "median seed-adjusted z-score": "inactive: 0"}, {"sequence": "GCCCUACGUUUGUGAAGAATT against ZNF93", "median seed-adjusted z-score": "inactive: 0.502"}, {"sequence": "GGAUGACAUUAGCAGGUAUTT against ERCC6", "median seed-adjusted z-score": "inactive: 0.0421"}, {"sequence": "CCAUAUGAGUCCUAUGAGATT against SMURF1", "median seed-adjusted z-score": "active: -1.4"}, {"sequence": "GGUUCCUAUUUUACCAGUUTT against AGBL2", "median seed-adjusted z-score": "inactive: -0.796"}, {"sequence": "AGAAGAUCGGAAUUCUUUATT against RGPD5", "median seed-adjusted z-score": "inactive: -0.0931"}, {"sequence": "AGUUCGUCCGCUUUCUUUUTT against P2RY4", "median seed-adjusted z-score": "inactive: -0.389"}, {"sequence": "GGACAUUGGACUAACCCAATT against EFHB", "median seed-adjusted z-score": "inactive: 0.675"}, {"sequence": "GGAUUCAUGAGAUAGAGAATT against RAB19", "median seed-adjusted z-score": "inactive: -0.0516"}, {"sequence": "GCUGAUUUCCGAAAAUCUATT against SMPD3", "median seed-adjusted z-score": "inactive: -0.0115"}, {"sequence": "GGCCUAUCUCCUGCACAAATT against ARGFX", "median seed-adjusted z-score": "inactive: 0.273"}, {"sequence": "CGACGAGACCGGAUCAAUATT against HEY1", "median seed-adjusted z-score": "inactive: -0.023"}, {"sequence": "CGAGGUCAUUGUGCAUGAATT against FLT4", "median seed-adjusted z-score": "inactive: -0.861"}, {"sequence": "GGUUUUCGAGUCCUAAUUATT against PTEN", "median seed-adjusted z-score": "inactive: -0.408"}, {"sequence": "CGAACACCAUUCAAAGAUUTT against GRK7", "median seed-adjusted z-score": "inactive: 0.288"}, {"sequence": "AGAGUUUGGUAUCUGCAAATT against ESM1", "median seed-adjusted z-score": "inactive: 0.141"}, {"sequence": "CCUCUUUUGGAACAACAUATT against RAC2", "median seed-adjusted z-score": "inactive: -0.596"}, {"sequence": "CAGCAUUUCCCUACACGUUTT against DPP6", "median seed-adjusted z-score": "inactive: 0.0505"}, {"sequence": "UGAAGACCCAGAGAUGUAATT against PTN", "median seed-adjusted z-score": "inactive: -0.174"}, {"sequence": "GCAGGUCAAAGUCUGGUUUTT against HOXB2", "median seed-adjusted z-score": "inactive: 0.271"}, {"sequence": "GGGAUACACUGAGACGUAATT against EFHA2", "median seed-adjusted z-score": "inactive: 0.166"}]}]}
